Results reported in US20230140290A1, “SALICYLAMIDE DERIVATIVES AND RELATED METHODS OF MAKING” (THE BOARD OF REGENTS OF THE UNIVERSITY OF TEXAS SY, priority 2020, published 2023).
For part of these data: The name of at least one read-out is uncertain. Some results were stated once for a whole list of compounds, not compound by compound. For part of these data: At least one structure is not confirmed: it was looked up by name or label, or the drawing left a doubt.

Tests used:
HAdV5-GFP [1] = test: Plaque assay (inhibition of HAdV plaque formation); type: cell-based, HAdV-5; settings: for Plaque Assay IC50 (μM) / Plaque Assay (%) Inhibition (10 μM): HAdV5-GFP, low MOI, 293β5 cell line; for Selectivity index (SI): ratio of CC50 to IC50 in plaque assay
Description: Plaque Assay. […] When cells reached 80-90% confluency, they were infected with HAdV5-GFP (0.06 vp/cell) and rocked for 2 h at 37° C. After the incubation the inoculum was removed, and the cells were washed once with PBS.
Plaque Assay. Compounds were tested using low MOI infections (0.06 vp/cell) and at concentrations of 10 μM and in a dose-response assay ranging from 10 to 0.3 μM in a plaque assay. […] When cells reached 80-90% confluency, they were infected with HAdV5-GFP (0.06 vp/cell) and rocked for 2 h at 37° C. After the incubation the inoculum was removed, and the cells were washed once with PBS. […] The mixture also contained the compounds in concentrations ranging from 10 to 0.3 μM.

HAdV5-GFP [2] = test: Time of addition assay; type: cell-based, HAdV-5
Description: (§1) Time of Addition Curve Study. […] Parallel samples of HAdV-5 were incubated with or without the selected derivatives on ice for 1 h. […] The derivatives were added at the indicated time points before or during this incubation. After a total of 2 h at 37° C., cells were incubated for an additional 48 h at 37° C. and 5% CO2 before being analyzed for GFP expression using the Typhoon 9410 imager (GE Healthcare Life Sciences) as above.
as §1, with “Assay.” for “Curve Study.”
as §1, with “Assay.” for “Curve Study.”, “compounds” for “derivatives”, “Compounds 153 and 161” for “The derivatives”

HCMV = HCMV DNA quantification by real-time PCR; type: cell-based, human cytomegalovirus; settings: HFF cells, 72 h, 10-fold plaque IC50 (niclosamide 5 μM)
Description: HCMV DNA Quantification by Real-Time PCR. […] Then, cells were incubated for 72 h at 37° C. and 5% CO2 and HCMV DNA was purified from the cell lysate using the QIAamp DNA Mini Kit (Qiagen, Valencia, Calif.) following the manufacturer's instructions. Real-time PCR primers, mixtures and protocols were the same as previously reported (Sanchez-Cespedes et al., J. Med. Chem. 2016, 59, 5432-5448).

wild-type HAdV5 = test: Virus yield reduction (virus burst assay, TCID50); type: cell-based, HAdV-5; settings: 10-fold plaque IC50 of each compound (niclosamide 5 μM); A549, MOI 100 vp/cell
[3] = FIG. 2, concentrations by CC50 (5 or 10 μM)

Q: `O=C(NCc1ccc(NC2CCCC2)cc1Cl)c1cc(Cl)ccc1O` [Compound 145, 5-Chloro-N-(2-chloro-4-(cyclopentylamino)benzyl)-2-hydroxybenzamide] was tested. Which “Plaque Assay IC50 (μM)” value (HAdV5-GFP [1]) did it give?
A: The value was “micromolar IC50 values”.

Q: How did the “Plaque Assay IC50 (μM)” value (HAdV5-GFP [1]) turn out when `CC(C)[C@H](NC(=O)c1cc(Cl)ccc1O)C(=O)Nc1ccc(NC2CCCC2)cc1Cl` [Compound 147, (S)-5-chloro-N-(1-((2-chloro-4-(cyclopentylamino)phenyl)amino)-3-methyl-1-oxobutan-2-yl)-2-hydroxybenzamide] was run?
A: Its value is “micromolar IC50 values”.

Q: Which results are given for `O=C(Nc1ccc(NCc2ccc(O)cc2)cc1Cl)c1cc(Cl)ccc1O` [Compound 101, 5-Chloro-N-(2-chloro-4-((4-hydroxybenzyl)amino)phenyl)-2-hydroxybenzamide]?
A: Selectivity index (SI) (HAdV5-GFP [1]): > 100; inhibition of HAdV infection when added at −60 min or at 120 min p.i. (HAdV5-GFP [2]; FIG. 7, 10-fold plaque IC50): ≥ 50%

Q: Which results are given for `O=C(NCC1CCCCC1)c1cc(Cl)ccc1O` [Compound 161, 5-Chloro-N-(cyclohexylmethyl)-2-hydroxybenzamide]?
A: decrease of total HCMV DNA compared to the DMSO control (HCMV): 95%; Virus Yield Reduction (fold) (wild-type HAdV5): 208 ± 108.1 fold

Q: How did the “Selectivity index (SI)” value (HAdV5-GFP [1]) turn out when `CC(C)[C@H](NC(=O)c1cc(Cl)ccc1O)C(=O)Nc1cc(C(F)(F)F)cc(C(F)(F)F)c1` [Compound 65, (S)—N-(1-((3,5-Bis(trifluoromethyl)phenyl)amino)-3-methyl-1-oxobutan-2-yl)-5-chloro-2-hydroxybenzamide] was run?
A: Its value is greater than 100.

Q: Which results are given for `O=C(Nc1ccc(NC2CCCC2)cc1Cl)c1cc(Cl)ccc1O` [Compound 78, 5-Chloro-N-(2-chloro-4-(cyclopentylamino)phenyl)-2-hydroxybenzamide]?
A: Selectivity index (SI) (HAdV5-GFP [1]): > 100; inhibition of HAdV infection when added at −60 min or at 120 min p.i. (HAdV5-GFP [2]; FIG. 7, 10-fold plaque IC50): ≥ 50%

Q: What does the source list for `O=C(Nc1ccc(NCc2ccc(O)nc2)cc1Cl)c1cc(Cl)ccc1O` [Compound 112, 5-Chloro-N-(2-chloro-4-(((6-hydroxypyridin-3-yl)methyl)amino)phenyl)-2-hydroxybenzamide]?
A: Selectivity index (SI) (HAdV5-GFP [1]): > 100; inhibition of HAdV infection after addition at the moment of the infection (0 min) (HAdV5-GFP [2]; FIG. 7, 10-fold plaque IC50): less than 50%

Q: Which results are given for `CC[C@@H](C)[C@H](NC(=O)c1cc(Cl)ccc1O)C(=O)Nc1ccc([N+](=O)[O-])cc1Cl` [Compound 62, 5-Chloro-N-((2S,3R)-1-((2-chloro-4-nitrophenyl)amino)-3-methyl-1-oxopentan-2-yl)-2-hydroxybenzamide]?
A: Selectivity index (SI) (HAdV5-GFP [1]): > 100; inhibition of HAdV infection when added at −60 min or at 120 min p.i. (HAdV5-GFP [2]; [3]): > 50%

Q: Which “inhibition of HAdV infection when added at −60 min or at 120 min p.i.” value (from here on “inhibition of HAdV infection … at 120 min p.i.”) (HAdV5-GFP [2]; [3]) does the source give for `CC(C)[C@H](NC(=O)c1cc(Cl)ccc1NS(C)(=O)=O)C(=O)Nc1ccc([N+](=O)[O-])cc1Cl` [Compound 70, (S)-5-Chloro-N-(1-((2-chloro-4-nitrophenyl)amino)-3-methyl-1-oxobutan-2-yl)-2-(methylsulfonamido)benzamide] here?
A: The value was greater than 50%.

Q: `CC1(Nc2ccc(NC(=O)c3cc(Cl)ccc3O)c(Cl)c2)CCCC1` [Compound 87, 5-Chloro-N-(2-chloro-4-((1-methylcyclopentyl)amino)phenyl)-2-hydroxybenzamide] was tested. Which “inhibition of HAdV infection when added at 5 min p.i.” value (HAdV5-GFP [2]; FIG. 7, 10-fold plaque IC50) did it give?
A: The value was “less than 50%”.

Q: `CC(C)(C)OC(=O)N1CCC(CNc2ccc(NC(=O)c3cc(Cl)ccc3O)c(Cl)c2)CC1` [Compound 126, tert-Butyl 4-(((3-chloro-4-(5-chloro-2-hydroxybenzamido)phenyl)amino)methyl)piperidine-1-carboxylate] was tested. Which “Selectivity index (SI)” value (HAdV5-GFP [1]) did it give?
A: The value was greater than 100.

Q: How did the “inhibition of HAdV infection … at 120 min p.i.” value (HAdV5-GFP [2]; [3]) turn out when `O=C(Nc1ccc([N+](=O)[O-])cc1)c1cc(Cl)ccc1O` [Compound 13, 5-Chloro-2-hydroxy-N-(4-nitrophenyl)benzamide] was run?
A: Its value is greater than 50%.

Q: With `CC(CCO)Nc1ccc(NC(=O)c2cc(Cl)ccc2O)c(Cl)c1` (stereo not drawn) [Compound 119, 5-Chloro-N-(2-chloro-4-((4-hydroxybutan-2-yl)amino)phenyl)-2-hydroxybenzamide] as the molecule, how does the “Selectivity index (SI)” value (HAdV5-GFP [1]) read?
A: The value was greater than 100.

Q: And the “inhibition of HAdV infection after addition at the moment of the infection (0 min)” value (HAdV5-GFP [2]; FIG. 7, 10-fold plaque IC50)?
A: Its value is “less than 50%”.

Q: `CN1CCN(C(=O)c2cc(Cl)ccc2O)CC1` [Compound 173, (5-Chloro-2-hydroxyphenyl)(4-methylpiperazin-1-yl)methanone] was tested. Which “Plaque Assay (%) Inhibition (10 μM)” value (HAdV5-GFP [1]) did it give?
A: The value was “not tolerated”.

Q: What does the source list for `CC(C)(CCO)Nc1ccc(NC(=O)c2cc(Cl)ccc2O)c(Cl)c1` [Compound 118, 5-Chloro-N-(2-chloro-4-((4-hydroxy-2-methylbutan-2-yl)amino)phenyl)-2-hydroxybenzamide]?
A: Selectivity index (SI) (HAdV5-GFP [1]): > 100; inhibition of HAdV infection after addition at the moment of the infection (0 min) (HAdV5-GFP [2]; FIG. 7, 10-fold plaque IC50): less than 50%

Q: `O=C(Nc1cc(F)cc(C(F)(F)F)c1)c1ccc(Cl)cc1O` [Compound 20, 4-Chloro-N-(3-fluoro-5-(trifluoromethyl)phenyl)-2-hydroxybenzamide] was tested. Which “Selectivity index (SI)” value (HAdV5-GFP [1]) did it give?
A: The value was greater than 100.

Q: What about the “inhibition of HAdV infection … at 120 min p.i.” value (HAdV5-GFP [2]; [3]) of the same molecule?
A: The value was greater than 50%.

Q: `O=C(c1cc(Cl)ccc1O)N1CCCCC1` [Compound 171] was tested. Which “Plaque Assay (%) Inhibition (10 μM)” value (HAdV5-GFP [1]; listed as compound 171, 10 µM) did it give?
A: Its value is “not tolerated”.

Q: How did the “Selectivity index (SI)” value (HAdV5-GFP [1]) turn out when `CC(C)(Cc1ccccc1)ON(c1ccc(NC(=O)c2cc(Cl)ccc2O)c(Cl)c1)C(C)(C)Cc1ccccc1` [Compound 115, 5-Chloro-N-(2-chloro-4-((2-methyl-1-phenylpropan-2-yl)((2-methyl-1-phenylpropan-2-yl)oxy)amino)phenyl)-2-hydroxybenzamide] was run?
A: Its value is greater than 100.

Q: And the “inhibition of HAdV infection when added at 5 min p.i.” value (HAdV5-GFP [2]; FIG. 7, 10-fold plaque IC50)?
A: The value was “less than 50%”.

Q: How did the “Plaque Assay IC50 (μM)” value (HAdV5-GFP [1]) turn out when `O=C(Cc1cc(Cl)ccc1O)Nc1ccc(NC2CCCC2)cc1Cl` [Compound 146, 2-(5-Chloro-2-hydroxyphenyl)-N-(2-chloro-4-(cyclopentylamino)phenyl)acetamide] was run?
A: Its value is “micromolar IC50 values”.

Q: `CC(=O)N1CCN(C(=O)c2cc(Cl)ccc2O)CC1` [Compound 172, 1-(4-(5-Chloro-2-hydroxybenzoyl)piperazin-1-yl)ethanone] was tested. Which “Plaque Assay (%) Inhibition (10 μM)” value (HAdV5-GFP [1]) did it give?
A: The value was “not tolerated”.

Q: How did the “Selectivity index (SI)” value (HAdV5-GFP [1]) turn out when `CC(C)[C@H](NC(=O)c1cc(Cl)ccc1O)C(=O)Nc1cc(F)cc(C(F)(F)F)c1` [Compound 67, (S)-5-Chloro-N-(1-((3-fluoro-5-(trifluoromethyl)phenyl)amino)-3-methyl-1-oxobutan-2-yl)-2-hydroxybenzamide] was run?
A: The value was greater than 100.
